## Library screening results

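Viability assay of Plasmodium falciparum sporozoites; the read-out is not stated. The concentration is filed as 10 mM, unlikely as a test dose, so the dose is not known. The record gives no direction; compounds that gave an IC50 in retests scored well above the rest, so higher reads as lower viability. Strong results were mostly tested again. Of about 34,000 compounds tested this way, about 280 (0.84%) reached 50% or more in at least one test.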

Each number is a percent effect as filed.
How 0% and 100% were set is not recorded. Most values in the screen are low, and negative values occur.
The compounds are a random part of those screened.
Two or more numbers in one place are separate tests of the same structure; such repeats can differ widely.

SMILES	Percent Effect
Cc1ncc(C(=O)N2CCCC(Cc3nccs3)C2)cn1 (centres undefined)	11.94
c1ccc(CN2CCCC(c3nccnc3-n3ccnc3)C2)cc1 (centres undefined)	5.421
COc1cccc(CN2CCC3(CC2)CCN(C(=O)[C@@H]2CCCO2)C3)c1.O=C(O)C(F)(F)F	-6.137
O=C(NCc1ccccc1)C1CN(c2ccccn2)CCO1 (centres undefined)	-3.185
CCOc1ccccc1OC1CCN(C(=O)c2cnsn2)CC1	9.507
CCc1ocnc1C(=O)N1CCCC1c1noc(C2CC2)n1 (centres undefined)	1.763
Cc1cnc(CNc2c(F)cccc2-n2cccn2)o1	6.943
CCCNC(=O)Nc1ncc(-c2cccnc2)s1	3.164
CC(C)Nc1nc(N2CCOCC2)nc2c1CN(CC(=O)N(C)C)CC2	-11.65
Cc1ccc(OCCN(C)C(=O)CCCN2CCCC2=O)c(C)c1	-2.308
CN(C)c1cc2c(nn1)CCN(C(=O)c1cc3ccccc3o1)C2	-15.02
Cc1nnc(CN(C)CCCOc2cccc(Cl)c2)o1	2.781
COCCc1noc(CN(C)C(=O)c2cccc(N3CCCC3=O)c2)n1	-5.016
CCN(Cc1ccc(F)cc1Cl)C1CCS(=O)(=O)C1 (centres undefined)	3.179
O=S1(=O)COCCN1Cc1cccc(Cl)c1	14
c1cnc(N2CCN(CCn3ccnc3-c3c[nH]cn3)CC2)nc1	-19.54
CN(C)CC1CSCCCN1C(=O)c1ccc(-c2ccccc2)cc1 (centres undefined)	11.37
COCCN1CCN(C(C)c2nc(C3CC3)no2)CC1 (centres undefined)	7.417
Cc1ccc(S(=O)(=O)Nc2ccc(-n3cccc3C(=O)O)c(C)c2)cc1	-12.5
O=C(O)C(F)(F)F.[H][C@@]12CCN(Cc3sccc3C)C[C@]1(COC)CCO2	9.114
CC(C)C[C@@H](CO)n1cc(-c2cncnc2)nn1	7.538
CCn1c(C)cc(C(=O)N2CCCC(c3nc(C)no3)C2)c1C (centres undefined)	-9.942
CS(=O)(=O)N1CCOC2(CCCN(c3cnccn3)C2)C1.O=C(O)C(F)(F)F (centres undefined)	-5.306
CCCC(O)CN1CCC(=O)N(Cc2ccccc2)Cc2ccccc21 (centres undefined)	-21.8
CCc1ocnc1C(=O)N1CCCC1c1noc(C(C)C)n1 (centres undefined)	-5.615
O=C1CCC2(CCCN(C(=O)c3ccco3)CC2)N1 (centres undefined)	1.198
COc1cccc(CN(C)S(=O)(=O)N2CCOCC2)c1	1.691
[H][C@@]12CCN(C(=O)Cc3cccs3)C[C@]1([H])OCCNC2=O	-1.107
CCc1nnc2n1CCN(Cc1csc(Cc3ccccc3)n1)C2	16.01
Cc1ccc(C#N)cc1NC(=O)NC1CCCN(c2ncccn2)C1 (centres undefined)	2.133
CC1c2ncc(Cn3cncn3)n2CCN1C(=O)[C@H]1CCCO1 (some centres undefined)	-3.204
Cn1nccc1-c1nnn2c1COC(CNCc1nccs1)C2.O=C(O)C(F)(F)F (centres undefined)	-18.19
Cc1cc(CN(C)CCC(O)c2ccccc2)nn1C (centres undefined)	-11.67
NC(=O)c1cccc(CC2CCN(C(=O)CO)C2)c1 (centres undefined)	-1.535
Cc1ccc(C(=O)N2CCC3(CCN3Cc3ccc(F)cc3)C2)cn1.O=C(O)C(F)(F)F (centres undefined)	4.557
Cc1ncc(-c2ccncc2)c(C2CCN(C(=O)c3ccco3)CC2)n1	-17.3
CC(C)Nc1cccc(C(=O)NCC(O)c2cccc(F)c2)c1 (centres undefined)	-11.8
O=C(c1ccc(CN2CC(n3cccn3)C2)cc1)N1CCCC1	5.089
Cc1ccn(CCC(=O)NCc2ccc(C)o2)n1	11.19
Fc1cnc(N2CCCC3(CCN(Cc4ccco4)C3)C2)nc1.O=C(O)C(F)(F)F.O=C(O)C(F)(F)F (centres undefined)	-24.38
Cn1ncc2c1C(COCC1CC1)CN(CC1CC1)C2 (centres undefined)	8.081
Cn1cnnc1C1CCCN(C(=O)c2cc(Cl)cc(Cl)c2)C1 (centres undefined)	-4.524
Cn1cnnc1-c1ccnc(NCc2ccc3c(c2)OCCO3)c1	6.91
CN(C)CCNC(=O)c1cc(-c2cnc(N(C)C)nc2)cn1CC1CC1	2.417
CCNC(=O)c1ccnc(CC2COc3c(cccc3OC)C2)c1 (centres undefined)	16.2 and 24.22 and 20.59
Fc1ccc(CN[C@@H]2COC[C@H]2c2ccc(F)cc2)cc1.O=C(O)CC(O)(CC(=O)O)C(=O)O	3.552
CCN1CCC(c2nc3ccc(NC(C)C)cn3n2)CC1.O=C(O)C(F)(F)F	-16.01
COCCN1CCC2(CC1)CC(NC(=O)C(C)C)c1ccccc1O2.O=C(O)C(F)(F)F (centres undefined)	23.73
Cc1cnn(CCNCC(=O)NCC2(c3ccccc3)CCC2)c1	-1.156
CCNC(=O)CN1CCC(c2cc(OC)cc(OC)c2)C1 (centres undefined)	-18.74
CC(C)C(=O)NCc1ccc(N2CCCC2)nc1	-0.4507
[H][C@@]12CS(=O)(=O)C[C@]1([H])N(C(=O)c1cscn1)CCN2C(=O)C(C)C	3.583
CCCS(=O)(=O)N1CCN(c2cc(-n3cnc(C)c3C)nc(C)n2)CC1	-8.288
Cn1ncc2c1C(COCC1CC1)CN(S(=O)(=O)C1CC1)C2 (centres undefined)	-5.724
[H][C@@]12CN(CC3CCOCC3)CCO[C@]1([H])CN(Cc1nc(C)cs1)C2	7.411
Cc1ccc(OC2(C(=O)O)CCN(C(=O)c3cccc(F)c3)CC2)cn1	-12.46
Cn1ccnc1CN1CCC2(CC(=O)N(c3ccsc3)C2)C1.O=C(O)C(F)(F)F (centres undefined)	-11.55
Cc1cc(C)c(CNC(=O)C2CCCN(c3cnccn3)C2)c(=O)[nH]1 (centres undefined)	-10.55
CC(=O)Nc1ccc(Oc2ccc3c(c2)OCO3)nc1	-16.03
CS(=O)(=O)NCC1CCCN(C(=O)COCC2CC2)C1 (centres undefined)	3.004

Once more, the final 7:

SMILES,Percent Effect
Cn1ncc2c1C(COCC1CC1)CN(S(=O)(=O)C1CC1)C2 (centres undefined),-5.724
[H][C@@]12CN(CC3CCOCC3)CCO[C@]1([H])CN(Cc1nc(C)cs1)C2,7.411
Cc1ccc(OC2(C(=O)O)CCN(C(=O)c3cccc(F)c3)CC2)cn1,-12.46
Cn1ccnc1CN1CCC2(CC(=O)N(c3ccsc3)C2)C1.O=C(O)C(F)(F)F (centres undefined),-11.55
Cc1cc(C)c(CNC(=O)C2CCCN(c3cnccn3)C2)c(=O)[nH]1 (centres undefined),-10.55
CC(=O)Nc1ccc(Oc2ccc3c(c2)OCO3)nc1,-16.03
CS(=O)(=O)NCC1CCCN(C(=O)COCC2CC2)C1 (centres undefined),3.004

Source: ChEMBL document CHEMBL3988442, “University of Dundee, Small-Polar-MMV Screening Library” (2021).